Measurements reported in PubChem BioAssay AID504834 (National Center for Advancing Translational Sciences (NCATS), 2011).
In all, about 320,000 compounds went through this assay and about 22,000 (6.9%) were called active. This list was built around the results that the source calls inconclusive (neither active nor inactive); the mix of calls is not that of the screen. The call rests on the fitted dose curve; in most records, active means well fitted inhibition curve with a large enough effect; inconclusive means small, poorly fitted or top-dose-only effect, or another doubt; inactive means no such curve, though single readings can be large or run the other way. Where the call is inconclusive, the potency comes from a doubtful curve fit.

Test: Primary qHTS for delayed death inhibitors of the malarial parasite plastid, 96 hour incubation
Conditions: P. falciparum luciferase reporter growth; series mostly up to 28.7 µM; activity change, negative = inhibition: at the top concentration
Method in brief: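 Two-generation exposure (96 h) targets delayed-death phenotype. Reporter parasites carrying integrated firefly luciferase, in red cells at 2% hematocrit and 0.05% parasitemia final, kept at 37 C, 5% CO2; luminescence loss indicates inhibition.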
On the % scale 0 is the no-effect control and ±100 the full control effect; potency means the concentration at half of the fitted maximal effect.

SMILES | Potency | activity change, negative = inhibition
CCOC(=O)CSc1nc2cc(C(=O)NCc3ccco3)ccc2c(=O)n1-c1ccc(F)cc1 | inconclusive: 18.5 µM [inhibitor, single point] | 
Cc1cc(NC(=O)c2cc(CC(C)C)on2)no1 |  | inactive: 12.7%
CCOc1ccccc1NC(=O)Nc1ccc(Cl)cc1 | inconclusive: 11.7 µM [inhibitor, single point] | 
C[C@H](NC(=O)OC(C)(C)C)C(=O)NCC1CCC(C(=O)N[C@@H](Cc2ccccc2)C(=O)O)CC1 (stereo not given in full) |  | inactive: -8.84%
COc1ccc(CN2CCN(C(=O)CCC(=O)Nc3nnc(C(C)C)s3)CC2)cc1F | inconclusive: 10.4 µM [inhibitor, single point] | 
CC(=O)Nc1nc(-c2ccccc2)nc(C)c1C(C)=O | active: 1.85 µM | 
COc1ccccc1N/C(N)=N/c1nc(C)cc(C)n1 | inconclusive: 18.5 µM [inhibitor, single point] | 
CCC(=O)Nc1ccc(NCc2cccs2)cc1 |  | inactive: 16.2%
Cc1ccc2cc3c(NS(=O)(=O)c4cccc5nonc45)nn(CC(C)C)c3nc2c1 | inconclusive: 18.5 µM [inhibitor, single point] | 
CN(C)c1nc(Oc2ccc(=O)n(C)n2)nc(N2CCOCC2)n1 | inconclusive: 2.62 µM [inhibitor, single point] | 
CN(CC(=O)N1CCOCC1)C(=O)CSc1nc2ccccc2s1 | inconclusive: 0.0093 µM [inhibitor, full curve, poor fit] | 
O=c1ccc(-c2ccccc2)nn1Cc1ccc(F)cc1Cl |  | inactive: -6.39%
CCCCOC(=O)Nc1nc2ccccc2s1 |  | inactive: 98.3%
C=CCC1Cc2c(cccc2[N+](=O)[O-])C(CC=C)N1 (stereo not given) | inconclusive: 1.65 µM [inhibitor, full curve, poor fit] | 
CCOC(=O)C1CCN(C(=O)Nc2ccc(NC(=O)C3CCN(C(=O)OCC)CC3)cc2)CC1 |  | inactive: -34.1%
COC(=O)c1ccc(CSc2nnnn2C)o1 | inconclusive: 18.5 µM [inhibitor, single point] | 
COc1ccc(-c2[nH]c(-c3ccc(F)cc3)nc2SCC(=O)NC2CCCC2)cc1 | inconclusive: 16.5 µM [inhibitor, single point] | 
COc1ccc(-n2ncc3c(=O)n(CC(C)=O)cnc32)cc1 | inconclusive: 0.37 µM [inhibitor, full curve, poor fit] | 
COc1ccc(Cc2nnc(NC(C)=O)s2)cc1 | inconclusive: 13.1 µM [inhibitor, partial curve] | 
Cc1cc(C)n(-c2ncnc3sc4c(c23)CCCC4)n1 | active: 13.1 µM | 
CC(C)Cn1c(N)c(C(=O)COC(=O)c2ccncc2)c(=O)n(C)c1=O | inconclusive: 14.7 µM [inhibitor, single point] | 
CCCOc1ccc(-c2nn(-c3ccccc3)cc2/C=C2\SC(N)=NC2=O)cc1C | inconclusive: 11.7 µM [inhibitor, single point] | 
Cc1ccc2[nH]c(C(=O)N3CCCC(Nc4ccc(F)cc4)C3)cc2c1 (stereo not given) | inconclusive: 9.28 µM [inhibitor, single point] | 

SMILES | Potency | activity change, negative = inhibition
COc1cccc(-c2nc(-c3ccccc3)nc(N3CCN(C)CC3)c2C#N)c1 | inconclusive: 7.38 µM [inhibitor, partial curve] | 
CS(=O)(=O)NN1C(=O)c2ccccc2NC1c1cccc(O)c1 (stereo not given) |  | inactive: -21.2%
Cc1ccccc1N1CCN(C2CCCN(C(=O)c3cc(CC(C)C)nn3C)C2)CC1 (stereo not given) | inconclusive: 10.4 µM [inhibitor, single point] | 
COc1ccc(CCN2C(=O)c3[nH]nc(-c4ccccc4O)c3C2c2cccc(Cl)c2)cc1 (stereo not given) | active: 1.85 µM | 
OCC1(CCCc2ccccc2)CCN(C2CCC2)CC1 | inconclusive: 1.04 µM [inhibitor, partial curve, poor fit] | 
CCC(=N\NC(=O)COc1ccccc1OC)/C(CC)=N/NC(=O)COc1ccccc1OC | inconclusive: 18.5 µM [inhibitor, single point] | 
COc1ccc(NC(=O)C2CCCN(S(=O)(=O)c3ccc4c(c3)oc(=O)n4C)C2)c(OC)c1 (stereo not given) | inconclusive: 3.7 µM [inhibitor, partial curve, poor fit] | 
COc1cc(/C=C/C2=NC(=O)C(C)(C)O2)ccc1O | inconclusive: 18.5 µM [inhibitor, single point] | 
COc1ccc(CNC(=O)C2CCN(C(=O)[C@@H]3Cc4ccccc4CN3)CC2)cc1 |  | inactive: 73.3%
O=S(=O)(c1cc(Cl)ccc1Cl)n1cccn1 | inconclusive: 2.33 µM [inhibitor, partial curve, poor fit] | 
CCOC(=O)c1cc(-c2ccccc2)sc1NC(=O)C(C)N1C(=O)NC(C)(c2ccc(Cl)cc2)C1=O (stereo not given) | active: 9.28 µM | 
COc1ccc(-c2cc(C(=O)Oc3ccc([N+](=O)[O-])cc3)c3ccccc3n2)cc1 | active: 13.1 µM | 
O=C1NC(Nc2ccccn2)(C(F)(F)F)C(=O)N1c1ccc(F)cc1 (stereo not given) | inconclusive: 10.4 µM [inhibitor, partial curve] | 
O=C(Nc1ncc2c(n1)-c1ccccc1CC2)c1ccc(Cl)cc1 | inconclusive: 20.8 µM [inhibitor, partial curve, poor fit] | 
OCCCNc1nc(-c2ccc(Cl)cc2)nnc1-c1ccccc1 | active: 3.7 µM | 
Cc1cccc(C)c1NC(=O)CCCN1CC(C)OC(C)C1 (stereo not given) |  | inactive: -0.838%
O=c1c2cccnc2n(-c2ccccc2)n1Cc1c(Cl)cccc1Cl | inconclusive: 11.7 µM [inhibitor, single point] | 
O=S(=O)(c1cccs1)N1CCN(CCOc2ccc(Cl)cc2)CC1 |  | inactive: -11.8%
COc1ccc(C2CC(c3ccc(OC)c(OC)c3)=NN2S(C)(=O)=O)cc1 (stereo not given) |  | inactive: 223%
CCOc1ccc(-c2cc(C(=O)N/N=C(\C)c3cccnc3)c3ccccc3n2)c(OCC)c1 | inconclusive: 9.28 µM [inhibitor, single point] | 
FC(F)(F)COc1cc(-c2nnc(SCc3ccccc3)n2Cc2ccco2)cc(OCC(F)(F)F)n1 | active: 11.7 µM | 
COc1ccc(CCNC(=O)COc2cc(O)c3c(c2)OC(C)(C)CC3=O)cc1OC | inconclusive: 11.7 µM [inhibitor, partial curve] | 

Exported with tabs: entries from further up
SMILES	Potency	activity change, negative = inhibition
O=C1NC(Nc2ccccn2)(C(F)(F)F)C(=O)N1c1ccc(F)cc1 (stereo not given)	inconclusive: 10.4 µM [inhibitor, partial curve]	
O=C(Nc1ncc2c(n1)-c1ccccc1CC2)c1ccc(Cl)cc1	inconclusive: 20.8 µM [inhibitor, partial curve, poor fit]	
OCCCNc1nc(-c2ccc(Cl)cc2)nnc1-c1ccccc1	active: 3.7 µM	
